## Screening data, single-dose tests

Amino acid sequences for entries named in this document (tags omitted).
UniProt P9WPC5, whole entry: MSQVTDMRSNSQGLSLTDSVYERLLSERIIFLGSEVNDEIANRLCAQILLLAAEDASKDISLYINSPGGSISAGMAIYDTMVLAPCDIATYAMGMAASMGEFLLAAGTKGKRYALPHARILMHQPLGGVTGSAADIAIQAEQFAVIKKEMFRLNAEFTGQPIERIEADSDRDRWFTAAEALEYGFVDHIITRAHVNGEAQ
UniProt P9WPC3, whole entry partner: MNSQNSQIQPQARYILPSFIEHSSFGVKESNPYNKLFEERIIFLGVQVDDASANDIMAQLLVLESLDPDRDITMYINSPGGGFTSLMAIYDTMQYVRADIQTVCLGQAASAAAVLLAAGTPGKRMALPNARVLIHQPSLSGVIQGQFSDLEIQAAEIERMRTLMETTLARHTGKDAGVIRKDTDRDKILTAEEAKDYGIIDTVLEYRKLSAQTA
UniProt I6X8D2, whole entry: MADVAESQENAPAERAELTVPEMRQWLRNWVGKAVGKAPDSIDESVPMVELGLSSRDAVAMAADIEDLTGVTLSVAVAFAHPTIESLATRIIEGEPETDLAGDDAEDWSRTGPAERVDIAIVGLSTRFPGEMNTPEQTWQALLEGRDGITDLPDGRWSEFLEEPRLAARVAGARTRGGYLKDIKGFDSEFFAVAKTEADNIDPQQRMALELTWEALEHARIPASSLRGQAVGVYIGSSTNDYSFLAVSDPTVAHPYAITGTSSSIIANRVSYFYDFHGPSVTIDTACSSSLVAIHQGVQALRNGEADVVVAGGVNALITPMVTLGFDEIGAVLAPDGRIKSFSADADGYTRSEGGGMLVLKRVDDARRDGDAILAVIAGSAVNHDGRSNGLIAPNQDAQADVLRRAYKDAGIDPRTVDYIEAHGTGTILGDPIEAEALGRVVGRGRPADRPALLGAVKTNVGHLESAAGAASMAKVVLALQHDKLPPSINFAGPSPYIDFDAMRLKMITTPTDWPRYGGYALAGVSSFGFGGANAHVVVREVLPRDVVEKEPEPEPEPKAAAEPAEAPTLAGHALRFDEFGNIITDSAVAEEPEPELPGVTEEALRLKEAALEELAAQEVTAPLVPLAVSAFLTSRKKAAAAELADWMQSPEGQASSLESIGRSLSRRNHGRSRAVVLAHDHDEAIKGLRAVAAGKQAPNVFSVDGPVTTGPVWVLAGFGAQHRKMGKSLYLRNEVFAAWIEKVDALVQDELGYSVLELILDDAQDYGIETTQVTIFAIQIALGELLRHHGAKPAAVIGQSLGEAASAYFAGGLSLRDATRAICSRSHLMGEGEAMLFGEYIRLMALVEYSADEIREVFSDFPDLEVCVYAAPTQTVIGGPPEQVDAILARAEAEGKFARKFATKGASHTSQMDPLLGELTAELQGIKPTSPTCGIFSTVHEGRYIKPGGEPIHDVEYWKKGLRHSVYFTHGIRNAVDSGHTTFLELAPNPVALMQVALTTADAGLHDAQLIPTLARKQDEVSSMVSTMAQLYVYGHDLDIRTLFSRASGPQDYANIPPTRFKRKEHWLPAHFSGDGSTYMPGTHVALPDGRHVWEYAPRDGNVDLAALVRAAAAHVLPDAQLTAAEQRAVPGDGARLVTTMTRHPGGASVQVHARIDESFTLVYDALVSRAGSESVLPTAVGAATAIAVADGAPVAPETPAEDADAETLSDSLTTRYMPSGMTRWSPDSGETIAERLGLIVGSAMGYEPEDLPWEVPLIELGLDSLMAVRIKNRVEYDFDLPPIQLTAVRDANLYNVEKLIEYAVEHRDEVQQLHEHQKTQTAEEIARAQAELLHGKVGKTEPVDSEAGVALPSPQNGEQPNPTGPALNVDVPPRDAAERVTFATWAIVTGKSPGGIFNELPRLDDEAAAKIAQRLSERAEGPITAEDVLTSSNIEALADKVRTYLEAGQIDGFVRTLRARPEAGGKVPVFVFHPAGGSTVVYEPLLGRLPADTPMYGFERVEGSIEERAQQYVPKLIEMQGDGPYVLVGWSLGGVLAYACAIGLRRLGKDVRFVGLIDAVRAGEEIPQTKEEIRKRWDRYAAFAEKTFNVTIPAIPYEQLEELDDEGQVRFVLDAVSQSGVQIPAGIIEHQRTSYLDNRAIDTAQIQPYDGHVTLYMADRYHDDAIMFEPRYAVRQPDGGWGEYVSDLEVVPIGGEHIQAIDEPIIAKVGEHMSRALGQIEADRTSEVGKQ

Source: ChEMBL document CHEMBL3988442, “University of Dundee, Small-Polar-MMV Screening Library” (2021).

Results are given as percent effect.
How 0% and 100% were set is not recorded. Most values in the screen are low, and negative values occur.
The compounds are a random part of those screened.
Two or more numbers in one place are separate tests of the same structure; such repeats can differ widely.

A: 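Cell assay of Leishmania donovani living inside macrophages; the read-out is not stated. Concentration: 30 µM. Direction is inferred from retests: higher values go with stronger inhibition. About 69,000 compounds were tested under these conditions; 1.5% (about 1,000) showed 50% or more at least once.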
B: 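Assay of Toxoplasma gondii numbers, read through their beta-galactosidase reporter with a colour substrate. Tested at 10 µM. Higher reads as fewer parasites (inferred from which compounds were picked for retests). About 67,000 compounds were tested under these conditions; 0.38% (about 260) showed 50% or more at least once.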
C: 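ClpP1P2, Mycobacterium tuberculosis (UniProt P9WPC5 and UniProt P9WPC3). Protease assay of ClpP1P2, read by the AMC dye that it sets free. Compounds at 50 µM. Direction is inferred from only a few compounds that gave an IC50; most scored high, so higher reads as stronger inhibition. Most other retested compounds had strongly negative values. Of about 69,000 compounds tested this way, about 10 (0.015%) reached 50% or more in at least one test.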
D: 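Whole-parasite assay of Trypanosoma brucei over 72 hours; the read-out is not stated. Tested at 30 µM. Direction is inferred from retests: higher values go with stronger inhibition. Values scatter widely below zero; nearly all retest evidence comes from the higher of the two concentrations used. Of about 64,000 compounds tested this way, about 940 (1.5%) reached 50% or more in at least one test.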
E: 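Enzyme assay of the thioesterase domain of polyketide synthase 13; the read-out is not stated. Target: Polyketide synthase Pks13, Mycobacterium tuberculosis (UniProt I6X8D2). Tested at 30 µM. The record gives no direction; the compounds picked for IC50 retests had high values, so higher reads as stronger inhibition. Size under these conditions: about 67,000 compounds, about 300 of them at 50% or above in at least one test.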

* CCC(NC(=O)c1cnc(N(C)C)nc1C)c1ccc(S(C)(=O)=O)cc1 (configuration not stated) | A: -18.6%; B: 11.68%; C: -8.74%; D: -34.78%; E: -9.958%
* Cc1ccc(C(=O)NC2CCN(Cc3noc(C(C)(C)C)n3)CC2)s1 | A: 20.64%; B: 25.89%; C: -14.23%; D: -3.665%; E: -8.337%
* Cc1cn2c(n1)CCC(NC(=O)c1[nH]ncc1Br)C2 (configuration not stated) | A: -4.261%; B: -12.54%; C: -10.69%; D: -8.147%; E: -9.627%
* [H][C@@]12COC[C@]1([H])[C@@H](OCC1CCN(C)CC1)CN2C(=O)c1cccn1C | A: 39.72%; B: -24.22%; D: -36.03%
* Cc1nnc(SCCC(=O)N(C)Cc2ccc(F)cc2F)[nH]1 | A: 20.54%; B: -5.014%; C: -1.626%; D: -26.35%; E: 13.64%
* Cc1ccc(-c2ccc(C(=O)NCCS(N)(=O)=O)c(F)c2)cc1 | A: 0.07964%; B: 2.949%; C: -5.18%; D: 14.05%; E: 24.59%
* CSCCC(NC(=O)c1ccc2ccccc2n1)C(=O)N(C)C (configuration not stated) | A: 9.851%; B: 0.6233%; C: 13.89%; D: -24.79%; E: -10.58%
* O=C(c1ccc2c(c1)[nH]c(=O)n2C1CCCC1)N1CCSCC1 | A: -2.563%; B: -4.593%; C: 4.073%; E: 2.258%
* COc1cccc(CNC(C)Cn2cccn2)c1OC (configuration not stated) | C: 3.456%; E: -3.534%
* NS(=O)(=O)c1ccc(NC(=O)CSc2ccc3c(c2)CCC3)cc1 | A: 18.77%; B: 3.223%; C: 9.795%; D: -10.09%; E: -14.25%
* O=S(=O)(NCC(O)c1ccoc1)c1ccc(Br)s1 (configuration not stated) | A: 22.4%; B: -2.011%; C: -13.26%; D: -14.25%; E: -7.33%
* COc1cc(N(C)Cc2noc(CC(C)C)n2)ncn1 | A: 19.55%; B: -7.54%; C: -6.123%; D: -6.377%
* O=C(O)c1cc(-c2ccoc2)cc(S(=O)(=O)NC2CC2)c1 | A: 8.629%; B: 7.557%; C: -1.267%; D: 27.37%
* Cc1nc(C)c2c(n1)CCN(Cc1nccn1C)CC2 | C: -12.25%; E: 3.146%
* CC(C)(C)CCCC(=O)Nc1ccnn1C1CCS(=O)(=O)C1 (configuration not stated) | A: 15.43%; B: 6.705%; C: 7.321%; D: -0.45%; E: -4.393%
* COc1cc(C(=O)NCCc2ccc(Cl)cc2)on1 | A: -10.66% and -34.04%; B: 12.1%; C: -7.492%; D: 16.1%; E: 16.52%
* C=C(C)CN(CC)C(=O)CN1CCCC1C(=O)N(C)C (configuration not stated) | A: 16.12%; B: 4.953%; C: -0.1505%; D: -13.07%; E: 4.864%
* Cc1ccc(Cl)cc1NC(=O)C1CSc2ncc(C)c(=O)n2C1 (configuration not stated) | A: 17.12%; B: -4.705%; C: -6.534%; D: -18.01%; E: 6.071%
* CC(=O)N1CCCN(C(=O)c2cnc3n[nH]c(C)c3c2)CC1 | A: 40.23%; B: -11.24%; C: -2.325%; D: 32.93%; E: -9.715%
* CC(C)(CNC(=O)Nc1cccc(-c2nccs2)c1)C(N)=O | A: 26.05%; B: 11.89%; C: 1.177%; D: -8.999%; E: -1.463%
* Cc1ncc(C(=O)N2CC[C@@]3(O)CCN(C(=O)N(C)C)C[C@H]3C2)cn1 | C: -7.469%; E: -15.14%
* O=C(c1ccnnc1)N1C[C@@H](OCC2CCOCC2)[C@H]2OCCC[C@H]21 | C: -1.817%; E: -19.57%
* CCc1nc(CN2CCCN(C(=O)COC)CC2)cs1 | A: 19.95%; B: 3.367%; C: -16.61%; D: 19.24%; E: -3.32%
* Cc1nc2scc(C)n2c1CNc1ccc(C(=O)O)cc1 | A: -23.42%; B: -2.65%; C: -8.219%; D: -8.81%; E: -11.9%

The first 2 entries again:

| compound | A | B | C | D | E |
|---|---|---|---|---|---|
| `CCC(NC(=O)c1cnc(N(C)C)nc1C)c1ccc(S(C)(=O)=O)cc1` (configuration not stated) | -18.6% | 11.68% | -8.74% | -34.78% | -9.958% |
| `Cc1ccc(C(=O)NC2CCN(Cc3noc(C(C)(C)C)n3)CC2)s1` | 20.64% | 25.89% | -14.23% | -3.665% | -8.337% |